Laboratory results published in PMC10178565.
Results are given in words; binding and its absence hold for the method and conditions named. Binding seen in cells or lysates may run through a third protein. Some entries that bind do so weakly or less than the wild type.

Sequences of proteins named here, by UniProt entry; tags and fusion partners are left off. A change or cut given only in a name is not applied to a line headed by its entry.
UniProt P43406: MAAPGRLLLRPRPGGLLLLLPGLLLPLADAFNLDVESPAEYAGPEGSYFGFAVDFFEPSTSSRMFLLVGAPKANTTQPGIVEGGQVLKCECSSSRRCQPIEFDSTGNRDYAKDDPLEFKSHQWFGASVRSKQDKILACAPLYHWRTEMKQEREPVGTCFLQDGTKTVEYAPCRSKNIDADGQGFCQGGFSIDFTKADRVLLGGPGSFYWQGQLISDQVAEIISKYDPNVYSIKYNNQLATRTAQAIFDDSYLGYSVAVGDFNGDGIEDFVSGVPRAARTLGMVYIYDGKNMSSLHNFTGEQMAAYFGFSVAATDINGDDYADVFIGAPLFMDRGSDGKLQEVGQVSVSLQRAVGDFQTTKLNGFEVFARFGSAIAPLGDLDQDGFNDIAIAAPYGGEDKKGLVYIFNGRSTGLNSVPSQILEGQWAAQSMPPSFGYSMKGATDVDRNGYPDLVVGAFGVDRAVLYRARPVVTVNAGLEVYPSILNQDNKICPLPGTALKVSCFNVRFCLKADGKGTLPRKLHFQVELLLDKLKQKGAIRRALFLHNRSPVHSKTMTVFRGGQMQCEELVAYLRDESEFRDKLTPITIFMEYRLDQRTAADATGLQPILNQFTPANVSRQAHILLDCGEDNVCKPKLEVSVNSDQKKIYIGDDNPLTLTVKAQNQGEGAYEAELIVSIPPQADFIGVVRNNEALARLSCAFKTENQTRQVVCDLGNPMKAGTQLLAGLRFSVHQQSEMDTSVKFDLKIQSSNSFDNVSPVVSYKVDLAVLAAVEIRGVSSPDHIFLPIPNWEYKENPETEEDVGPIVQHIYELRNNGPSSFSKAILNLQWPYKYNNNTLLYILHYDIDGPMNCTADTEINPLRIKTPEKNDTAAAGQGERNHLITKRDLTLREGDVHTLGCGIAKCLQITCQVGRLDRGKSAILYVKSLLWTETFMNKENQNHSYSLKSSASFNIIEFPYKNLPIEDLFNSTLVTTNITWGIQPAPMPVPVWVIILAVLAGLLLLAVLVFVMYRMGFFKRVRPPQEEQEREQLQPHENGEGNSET
UniProt O70309: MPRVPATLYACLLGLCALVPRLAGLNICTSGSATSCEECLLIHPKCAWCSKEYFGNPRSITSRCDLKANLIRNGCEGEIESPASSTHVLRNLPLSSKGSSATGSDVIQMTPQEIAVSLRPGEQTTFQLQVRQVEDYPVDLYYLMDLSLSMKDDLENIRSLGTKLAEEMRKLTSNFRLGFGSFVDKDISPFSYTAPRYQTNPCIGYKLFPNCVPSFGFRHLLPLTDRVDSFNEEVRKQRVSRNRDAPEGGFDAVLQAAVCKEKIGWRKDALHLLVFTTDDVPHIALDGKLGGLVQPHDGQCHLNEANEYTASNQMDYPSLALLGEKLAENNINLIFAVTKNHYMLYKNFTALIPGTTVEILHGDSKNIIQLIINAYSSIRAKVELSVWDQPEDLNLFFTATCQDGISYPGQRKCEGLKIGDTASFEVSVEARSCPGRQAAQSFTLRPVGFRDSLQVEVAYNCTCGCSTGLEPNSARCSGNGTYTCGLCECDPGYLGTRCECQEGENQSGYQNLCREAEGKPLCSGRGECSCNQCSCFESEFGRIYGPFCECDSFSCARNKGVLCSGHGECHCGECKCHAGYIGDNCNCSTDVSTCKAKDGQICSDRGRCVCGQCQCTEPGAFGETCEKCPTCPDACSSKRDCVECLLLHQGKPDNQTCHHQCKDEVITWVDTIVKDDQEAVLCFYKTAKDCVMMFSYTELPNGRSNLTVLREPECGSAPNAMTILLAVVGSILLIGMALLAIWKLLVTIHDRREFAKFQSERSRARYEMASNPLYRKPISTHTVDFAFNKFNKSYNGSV

Target: integrin αVβ5 (mouse (endogenous in hippocampus)) (UniProt P43406+O70309)
Assay: co-IP; lysate incubated with Protein A/G agarose and mouse anti-integrin alpha V/beta 5 antibody (sc-81632) overnight at 4 °C, then immunoblotted; hippocampus of MPTP (M), MPTP+exercise (ME) and ME+FNDC5 mice

binding: binds
B1: Thy1/CD90 (protein, UniProt P01831 20-131)
chain: QKVTSLTACLVNQNLRLDCRHENNTKDNSIQHEFSLTREKRKHVLSGTLGIPEHTYRSRVTLSNQPYIKVLTLANFTTKDEGDYFCELQVSGANPMSSNKSISVYRDKLVKC
